For part of these data: A negative result means that nothing was seen under these conditions. For at least one entry, the source does not settle the construct or the ends of the probe.
Key:
[1] = system: CrtR; test: EMSA; conditions: 0-0.4 pmol CrtR, 1.6 pmol probe in 50 ul, poly(dI-dC); EMSA: 10 mM Tris-HCl pH 7.2, 50 mM NaCl, 1 mM EDTA, 10% glycerol, 0.5 ug poly(dI-dC), 30 C 30 min; recombinant protein; residues 1-195; protein details: C-terminal 6xHis; label: Cy5 at 5' end; probe letters rebuilt from the primers and the genome; part of a longer molecule
[2] = system: CrtR; test: DNase I footprinting; conditions: 10-80 pmol CrtR in 50 ul; footprint: 25 mM HEPES-KOH pH 7.9, 0.5 mM EDTA, 50 mM KCl, 10% glycerol, 30 C 30 min (DNase I 1 min at 25 C); recombinant protein; residues 1-195; protein details: C-terminal 6xHis; label: 32P on one strand; probe letters rebuilt from the primers and the genome

TTCCGACATGCCAGAACGATCAACTAATTCACTTTTGGGATCACTAGTTTTCACGTCATAAATATTACGAAGTGGAGATTCTGCCGGATGGATTTTATCTGGTTCCTGCATATTCAGCATATTAATCACCTTTTTTTACAAAGTCAGATAAAGTTTGTTTTTAAAAATATTAACTCATGAGATAGTATAAATTTCCTGTAGGCACATTATTTTTATGAACCCGATTTCACACTTTCTGTACTTCATTAAGATAGAGCGCCATATACAACGATTGGGAATT (double strand) [PcrtR-PcrtE intergenic probe]
binding result [1]: binds

AAAGTGTGAATTTGGGTCCATAAAAATAATGTGCCTACAAGAAATTTATAGTATCCCATGAGTTAATATTTTTAAAAATAAACTTTATCTGACTTTGTAGAAAAAGGTGATTACTATGCTGAATATGCAGGAACCAGATAA (double strand) [crtR-crtE footprint probes]
binding result [2]: binds

AACCAACACCTCACCCCATAAGTTATCGAAAGGTGATTTTTGCCCAGGGTCTTGATTCACAACGCGCCTTGCTGTAGGAAAAACAGGCCCCTTTGTGACATCGGCGCAGTTGTTCAACTATAATGGAACGCTGATCGTGGACAAGAGTTAACCATGAGATTGATTCACCCCTTTAAGCCTCCAAAGAAGTAGTTGACTCAACGCATTTCGGCATTTA (double strand) [PsigA control probe]
binding result [1]: no binding
